From the supplement of paper PMC8256030
Several values for one entry are separate records, joined by “and”; a condition that tells them apart may be missing. Equal entries are not always repeated. The list shows a part of the results. This data set is noisy: repeats of one test often differ as much as different tests do.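 HEK293T cells were given each compound shortly before transfection with a reporter in which red mCherry is followed by the SARS-CoV-2 frameshift element and then GFP in the −1 frame, so GFP appears only after frameshifting.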

The molecules below were run on HEK293T (assay: percent viability (nuclei count) relative to control; higher = more viable cells). Conditions: 10 µM; 24 h.

Row | SMILES | percent viability
1 | CCCCN(CCCC)CCCOC(=O)c1ccc(N)cc1 [butacaine] | 190%
2 | N=C(N)c1ccc(N=NNc2ccc(C(=N)N)cc2)cc1 | 356%
3 | CCCCCCCCCCC[C@@H](C[C@@H]1OC(=O)[C@H]1CCCCCC)OC(=O)[C@H](CC(C)C)NC=O [orlistat] | 392%
4 | O=C(O)CCCN1CCC(O[C@@H](c2ccc(Cl)cc2)c2ccccn2)CC1 [Bepreve] | 216%
5 | CC(C)NC(=N)NC(=N)Nc1ccc(Cl)cc1 [Proguanil] | 269%
6 | COc1ccc(C(=O)c2ccccc2O)c(O)c1 [dioxybenzone] | 187%
7 | CCCCCCCC(=O)O [octanoic acid] | 122%
8 | Nc1nc2c(ncn2COCCO)c(=O)[nH]1 [aciclovir] | 255%
9 | CC(C)c1nc(CN(C)C(=O)N[C@H](C(=O)N[C@@H](Cc2ccccc2)C[C@H](O)[C@H](Cc2ccccc2)NC(=O)OCc2cncs2)C(C)C)cs1 [ritonavir] | 387%
10 | Cc1c2oc3c(C)ccc(C(=O)N[C@@H]4C(=O)N[C@H](C(C)C)C(=O)N5CCC[C@H]5C(=O)N(C)CC(=O)N(C)[C@@H](C(C)C)C(=O)O[C@@H]4C)c3nc-2c(C(=O)N[C@@H]2C(=O)N[C@H](C(C)C)C(=O)N3CCC[C@H]3C(=O)N(C)CC(=O)N(C)[C@@H](C(C)C)C(=O)O[C@@H]2C)c(N)c1=O | 40.2%
11 | CCOc1ccc(NC(=O)CC(C)O)cc1 (stereo not given) [bucetin] | 386%
12 | NC(N)=NC(N)=NCCc1ccccc1 | 113%
13 | CSC[C@H](NC(=O)[C@H](Cc1ccccc1)NC(=O)N1CCOCC1)C(=O)N[C@@H](CC1CCCCC1)[C@@H](O)C(=O)OC(C)C [terlakiren] | 179%
14 | COc1ccc(C(=O)c2ccccc2)c(O)c1 [oxybenzone] | 339%
15 | O=c1c(I)c[nH]cc1I [iopydone] | 218%
16 | CO/N=C(\C(=O)N[C@@H]1C(=O)N2C(C(=O)OCOC(=O)C(C)(C)C)=C(/C=C\c3scnc3C)CS[C@H]12)c1csc(N)n1 | 192%
17 | CN(C)CCCN1c2ccccc2Sc2ccc(Cl)cc21 [chlorpromazine] | 156% and 416%
18 | COc1ccc(/C=C/C(=O)Nc2ccccc2C(=O)O)cc1OC [Tranilast] | 165%
19 | C#CCN(C)CCCOc1ccc(Cl)cc1Cl | 244%
20 | CC(C)(O)C(C)(O)c1ccc(Cl)cc1 (stereo not given) [phenaglycodol] | 38.6%
21 | CO[C@H]1C[C@H](O[C@H]2[C@H](C)[C@@H](O[C@@H]3O[C@H](C)C[C@H](N(C)C)[C@H]3OC(C)=O)[C@@H](C)C[C@@]3(CO3)C(=O)[C@H](C)[C@@H](OC(C)=O)[C@@H](C)[C@@H](C)OC(=O)[C@@H]2C)O[C@@H](C)[C@@H]1OC(C)=O [troleandomycin] | 181%
22 | C=CCN1C(=O)C(CC(C)C)NC1=S (stereo not given) [albutoin] | 311%
23 | O=C(O)C1CCSCN1 (stereo not given) [omonasteine] | 188%
24 | C=CCSCC1Nc2cc(Cl)c(S(N)(=O)=O)cc2S(=O)(=O)N1 (stereo not given) [altizide] | 192%
25 | CC(C)(O/N=C(\C(=O)N[C@@H]1C(=O)N2C(C(=O)[O-])=C(C[n+]3ccccc3)CS[C@H]12)c1csc(N)n1)C(=O)O [Ceftazidime] | 215% and 293%

An excerpt from above in order of molar mass, low to high:
Row | SMILES | percent viability
6 | COc1ccc(C(=O)c2ccccc2O)c(O)c1 [dioxybenzone] | 187%
13 | CSC[C@H](NC(=O)[C@H](Cc1ccccc1)NC(=O)N1CCOCC1)C(=O)N[C@@H](CC1CCCCC1)[C@@H](O)C(=O)OC(C)C [terlakiren] | 179%
9 | CC(C)c1nc(CN(C)C(=O)N[C@H](C(=O)N[C@@H](Cc2ccccc2)C[C@H](O)[C@H](Cc2ccccc2)NC(=O)OCc2cncs2)C(C)C)cs1 [ritonavir] | 387%
